Laboratory results: paper PMC12314576, “The Actin‐Binding Prolyl‐Isomerase Par17 Sustains Its Substrate Selectivity by Interdomain Allostery” (Proteins, 2025)
No constants are given. Whether binding was seen depends on the method and setting. Some results given as binding are weak or reduced against the parent protein; the word gives no strength.

How the values were obtained:
Assay in all cases: peptide or protein array; 12-mers of β-actin (2 amino acids per step) SPOT-synthesised on cellulose membranes, blocked with 5% BSA in PBS, incubated overnight with Atto594-labeled Par14 or Par17, washed with PBS, fluorescence imaged; runs of three or more spots classified as possible binding sites; both purified
[1] = target: T1, β-actin 12-mer, spot G2
T1 sequence (peptide): YVGDEAQSKRGI

[2] = target: T2, β-actin 12-mer, spot F5
T2 sequence (peptide): LPHAILRLDLAG

[3] = target: T3, β-actin 12-mer, spot D5
T3 sequence (peptide): EGYALPHAILRL

[4] = target: T4, β-actin 12-mer, spot L8
T4 sequence (peptide): TTMYPGIADRMQ

[5] = target: T5, β-actin 12-mer, spot R1
T5 sequence (peptide): VGRPRHQGVMVG

[6] = target: T6, β-actin 12-mer, spot D7
T6 sequence (peptide): VITIGNERFRCP

[7] = target: T7, β-actin 12-mer, spot F7
T7 sequence (peptide): GNERFRCPEALF

[8] = target: T8, β-actin 12-mer, spot E7
T8 sequence (peptide): TIGNERFRCPEA

[9] = target: T9, β-actin 12-mer, spot G9
T9 sequence (peptide): PERKYSVWIGGS

[10] = target: T10, β-actin 12-mer, spot K4
T10 sequence (peptide): SLYASGRTTGIV

[11] = target: T11, β-actin 12-mer, spot O9
T11 sequence (peptide): LSTFQQMWISKQ

[12] = target: T12, β-actin 12-mer, spot D9
T12 sequence (peptide): IKIIAPPERKYS

[13] = target: T13, β-actin 12-mer, spot E5
T13 sequence (peptide): YALPHAILRLDL

[14] = target: T14, β-actin 12-mer, spot Q1
T14 sequence (peptide): SIVGRPRHQGVM

[15] = target: T15, β-actin 12-mer, spot N1
T15 sequence (peptide): PRAVFPSIVGRP

[16] = target: T16, β-actin 12-mer, spot O1
T16 sequence (peptide): AVFPSIVGRPRH

[17] = target: T17, β-actin 12-mer, spot I2
T17 sequence (peptide): EAQSKRGILTLK

[18] = target: T18, β-actin 12-mer, spot H4
T18 sequence (peptide): AIQAVLSLYASG

binding [1]: binds
binding [2]: binds
binding [3]: binds
binding [4]: binds
binding [5]: binds
binding [6]: binds
binding [7]: binds
binding [8]: binds
binding [9]: binds
binding [10]: binds
binding [11]: binds
binding [12]: binds
binding [13]: binds
binding [14]: binds
binding [15]: binds
binding [16]: binds
binding [17]: binds
binding [18]: binds
Substance: Atto594-labeled Par17 (from UniProt Q9Y237-2 3-156) (enzyme)
